Measured values reported in PubChem BioAssay AID1671190 (National Center for Advancing Translational Sciences (NCATS), 2021).
Several values for one entry are separate records, joined by “and”; a condition that tells them apart may be missing. Equal entries are not always repeated. Out of some 580,000 compounds screened, about 6,100 (1.1%) were called active. This list was built around the results that the source calls inconclusive (neither active nor inactive); the mix of calls is not that of the screen. The call rests on the fitted dose curve; in most records, active means well fitted inhibition curve with a large enough effect; inconclusive means small, poorly fitted or top-dose-only effect, or another doubt; inactive means no such curve, though single readings can be large or run the other way. Potencies beside an inconclusive call are fits to weak or partial responses and may not hold up.

Sequences of proteins named here, by UniProt entry; tags and fusion partners are left off. A change or cut given only in a name is not applied to a line headed by its entry.
UniProt P18054: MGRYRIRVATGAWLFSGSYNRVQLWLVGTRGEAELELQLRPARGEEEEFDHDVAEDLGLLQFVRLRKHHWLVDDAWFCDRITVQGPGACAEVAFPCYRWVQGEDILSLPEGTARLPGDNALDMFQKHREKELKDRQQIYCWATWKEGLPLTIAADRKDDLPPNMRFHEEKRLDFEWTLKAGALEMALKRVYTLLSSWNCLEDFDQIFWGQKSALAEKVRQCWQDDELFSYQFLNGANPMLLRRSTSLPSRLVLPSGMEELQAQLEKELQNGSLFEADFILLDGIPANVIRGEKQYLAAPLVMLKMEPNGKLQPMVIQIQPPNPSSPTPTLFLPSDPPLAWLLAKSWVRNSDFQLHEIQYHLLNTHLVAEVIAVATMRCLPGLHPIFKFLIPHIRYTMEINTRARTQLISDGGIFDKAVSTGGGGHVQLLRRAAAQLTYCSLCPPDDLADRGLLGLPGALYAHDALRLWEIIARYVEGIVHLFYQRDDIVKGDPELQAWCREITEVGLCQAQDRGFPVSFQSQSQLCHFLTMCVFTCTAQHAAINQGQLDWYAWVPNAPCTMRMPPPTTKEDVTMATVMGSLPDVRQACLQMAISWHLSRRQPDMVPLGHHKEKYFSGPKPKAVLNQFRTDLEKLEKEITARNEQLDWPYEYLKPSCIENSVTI

target: Polyunsaturated fatty acid lipoxygenase ALOX12 (Homo sapiens) (UniProt P18054); assay: Primary qHTS assay for inhibitors of human arachidonate 12S-lipoxygenase (ALOX12): Round 2; settings: purified 12hLO, xylenol orange hydroperoxide absorbance; activity change, negative = inhibition: at 108 µM (top of the series) unless noted
Summary of the method: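 Purified human 12hLO (150 nM final) in 25 mM Hepes, 0.01% Triton X-100, pH 7.0 was preincubated 15 min at room temperature with compound. Then 40 uM arachidonic acid was added, 30 min. Hydroperoxide was read by Fe-XO absorbance ratio 573/405 nm.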
On the % scale 0 is the no-effect control and ±100 the full control effect; potency means the concentration at half of the fitted maximal effect.

Row | SMILES | Potency | activity change, negative = inhibition
1 | CCN(CC)CCSc1nc2ccccc2n1Cc1ccccc1 | inconclusive: 44.7 µM [inhibitor, partial curve, poor fit] | 
2 | c1ccc(CCCNc2ncccn2)cc1 | inactive | 
3 | CCOc1ccc(CN(CCO)CCO)cc1[N+](=O)[O-] | inactive | 
4 | Cc1ccc(-n2nnc(-c3cnc4ccccc4c3)n2)cc1 | inconclusive: 17.8 µM [inhibitor, partial curve, poor fit] | 
5 | CCOC(=O)c1cnc2ccc(OC)cc2c1NCCc1ccccc1 | inconclusive: 44.7 µM [inhibitor, partial curve] | 
6 | Cn1c(=O)c2c(nc(NCc3ccccc3)n2Cc2ccccc2)n(C)c1=O | inconclusive: 112 µM [inhibitor, single point] | 
7 | CC1(c2cccc(Br)c2)NC(=O)N(CC(=O)N2CCc3ccccc32)C1=O (stereo not drawn) |  | inconclusive: -47.3% [inhibitor]
8 | O=C(NCc1ccccc1)c1sc(=S)n2c1[nH]c(=O)c1ccccc12 | inconclusive: 22.4 µM [inhibitor, full curve] | 
9 | O=C(c1cccc(NS(=O)(=O)c2ccc(Br)cc2)c1)N1CCCCC1 | inconclusive: 126 µM [inhibitor, partial curve, poor fit] | 
10 | CNc1nc(N2CCc3ccccc32)ncc1F | inactive | 
11 | CCNc1nc2nc3ccc(C)cn3c(=O)c2cc1C(=O)NCC1CCCO1 (stereo not drawn) | inconclusive: 17.8 µM [inhibitor, partial curve] | 
12 | Cc1ccc(C)c(S(=O)(=O)NCc2ccc(C(=O)N3CCCCC3C)cc2)c1 (stereo not drawn) | inactive | 
13 | C=CCc1ccccc1OCC(=O)NNC(=S)NCc1ccccc1 | inactive | 
14 | Cc1ccccc1C(=O)n1nc(NCc2cccs2)nc1NCc1cccs1 | inconclusive: 39.8 µM [inhibitor, partial curve, poor fit] | 
15 | CCc1ccc(-n2nc3cc(C)c(NC(=O)c4cccc5ccccc45)cc3n2)cc1 | inactive | 
16 | COc1cccc(OC)c1C(=O)NC(=S)Nc1ccc2c(c1)C(=O)N(C)C2=O | inconclusive: 20 µM [inhibitor, partial curve, poor fit] | 
17 | CC(C)c1ccc(NS(=O)(=O)c2ccc(N3C(=O)CCC3=O)cc2)cc1 | inactive | 
18 | Clc1cccc(CN2CCc3c([nH]c4ccccc34)C2)c1Cl | inconclusive: 17.8 µM [inhibitor, full curve, poor fit] | 
19 | NC(=S)N/N=C/c1ccc(Cl)cc1 | inconclusive: 79.4 µM [inhibitor, single point] | 
20 | CCc1cnc(N)nc1N(C)CCC(O)c1ccccc1 (stereo not drawn) | inactive | 
21 | Cc1ccccc1C(=O)NC(=S)Nc1ccccc1N1CCCC1 | inconclusive: 50.1 µM [inhibitor, partial curve, poor fit] | 
22 | O=C(O)c1ccccc1Cc1nc2cc(Cl)ccc2c(=O)[nH]1 | inactive | 
23 | CN(CC(=O)NCC1CCN(c2cnn(C)c(=O)c2)C1)C1CCNCC1 (stereo not drawn) | inconclusive: 11.2 µM [inhibitor, partial curve, poor fit] | 

Row | SMILES | Potency | activity change, negative = inhibition
24 | COC(=O)c1ccc2c(c1)nc1n2[C@@H](CNC(=O)NC2CCCCC2)COC1 | inactive | 
25 | COc1ccccc1CC(=O)NC1CCCC1 | inconclusive: 39.8 µM [inhibitor, partial curve, poor fit] | 
26 | CCN=c1scc(-c2ccc3c(c2)NC(=O)CO3)n1N=C1CCCC1 | inconclusive: 35.5 µM [inhibitor, partial curve, poor fit] and inconclusive: 50.1 µM [inhibitor, partial curve, poor fit] | 
27 | O=C(NC(=S)Nc1cccc2cc(O)ccc12)c1ccccc1Br | inconclusive: 44.7 µM [inhibitor, partial curve, poor fit] | 
28 | CCOc1ccc2ncc(S(=O)(=O)c3ccccc3)c(N3CCCCCC3)c2c1 | inconclusive: 35.5 µM [inhibitor, partial curve] | 
29 | CCOC(=O)c1cc([N+](=O)[O-])sc1NC(=O)CC | inactive | 
30 | CSc1ccc(CN2CCC(N3CC(C)OC(C)C3)CC2)cc1 (stereo not drawn) | inconclusive: 0.316 µM [inhibitor, full curve, poor fit] | 
31 | N#Cc1ccc(CN2CCC3(CC2)CC(=O)c2ccc(Cl)cc2O3)cc1 | inconclusive: 56.2 µM [inhibitor, partial curve, poor fit] | 
32 | CC(=O)c1ccc(OCC(O)COc2ccc(C(C)=O)cc2)cc1 | inactive | 
33 | Clc1ccc(/C(Cc2nc3ccccc3[nH]2)=N\Nc2ccccc2)cc1 | inconclusive: 50.1 µM [inhibitor, partial curve, poor fit] | 
34 | COc1cc(Cl)c(C)cc1NC(=O)CSc1nnc(-c2ccco2)n1CC(C)C | inconclusive: 25.1 µM [inhibitor, partial curve, poor fit] | 
35 | COc1ccc2[nH]c3c(C)c4cc[n+](C)cc4c(C)c3c2c1 | inconclusive: 22.4 µM [inhibitor, partial curve, poor fit] | 
36 | C=CCn1c(Oc2ccccc2)nc2c1c(=O)n(C)c(=O)n2C | inconclusive: 126 µM [inhibitor, single point] | 
37 | NC1=NC(=O)CC(C(=O)NCc2ccccc2)S1 (stereo not drawn) | inconclusive: 70.8 µM [inhibitor, partial curve, poor fit] | 
38 | COCCc1noc([C@@H]2CN(Cc3ccoc3)C[C@H]2CO)n1 | inactive | 
39 | CC(C)(C)C(=O)/C(C#N)=C/c1ccc(OCc2ccc(Cl)cc2Cl)cc1 | inconclusive: 31.6 µM [inhibitor, partial curve, poor fit] | 
40 | COc1ccc(C2CC(=O)Nc3c2c(C)nn3-c2ncccn2)cc1 (stereo not drawn) | inactive | 
41 | COC[C@@H]1CN(S(=O)(=O)Cc2ccccc2)C[C@H]1c1ccncc1 | inactive | 
42 | Cc1cccc(C(=O)N[C@H](C(=O)Nc2ccc(C)c(S(=O)(=O)N3CCOCC3)c2)C(C)C)c1 | inconclusive: 112 µM [inhibitor, single point] | 
43 | Cc1cc2c(cc1CC(=O)c1sccc1S(=O)(=O)Nc1onc(C)c1Cl)OCO2 | inconclusive: 9.07 µM [inhibitor, partial curve] | 
44 | CCS(=O)(=O)N1CCN(C(C)CCc2ccccc2)CC1 (stereo not drawn) | inconclusive: 44.7 µM [inhibitor, partial curve, poor fit] | 
45 | COc1ccc(CN2CCC(C(=O)c3ccc(F)cc3)CC2)cc1 | inconclusive: 79.4 µM [inhibitor, single point] | 
46 | COCCN1C(=O)c2ccccc2C(C(=O)NCc2ccco2)C1c1c[nH]c2ccccc12 (stereo not drawn) | inactive | 

An excerpt of these results, with each value named.
COc1ccc2[nH]c3c(C)c4cc[n+](C)cc4c(C)c3c2c1
  Potency: inconclusive: 22.4 µM [inhibitor, partial curve, poor fit]
C=CCn1c(Oc2ccccc2)nc2c1c(=O)n(C)c(=O)n2C
  Potency: inconclusive: 126 µM [inhibitor, single point]
NC1=NC(=O)CC(C(=O)NCc2ccccc2)S1 (stereo not drawn)
  Potency: inconclusive: 70.8 µM [inhibitor, partial curve, poor fit]

Going on with the list:

Row | SMILES | Potency | activity change, negative = inhibition
47 | N#Cc1ccc(C(=O)NC(=S)NC2CCCCC2)cc1 | inconclusive: 39.8 µM [inhibitor, partial curve, poor fit] | 
48 | COCCN1C(=O)c2ccccc2C(C(=O)N2CCN(c3ccccc3)CC2)C12CCCC2 (stereo not drawn) | inconclusive: 14.1 µM [inhibitor, full curve] | 
49 | O=C(c1cccs1)N(Cc1ccc2[nH]ccc2c1)C1CC1 | inactive | 
50 | O=C(COC(=O)CSc1ccc(Br)cc1)NCc1ccco1 | inconclusive: 28.2 µM [inhibitor, single point] | 
51 | O=[N+]([O-])c1ccc(N/N=C/c2c[nH]c3ccccc23)c(S(=O)(=O)Nc2ccc(Cl)cc2)c1 | inconclusive: 31.6 µM [inhibitor, partial curve, poor fit] and inconclusive: 44.7 µM [inhibitor, partial curve, poor fit] | 
52 | CC(C)COc1ccc(C(=O)N(Cc2ccc(N(C)C)cc2)Cc2ccco2)cc1 | inactive | 
53 | O=C1NC2(CCCC2)C(=O)N1Cc1coc(-c2cccc(Cl)c2)n1 | inconclusive: 31.6 µM [inhibitor, full curve, poor fit] | 
54 | CCOc1cc2c(cc1O)C(=NOC)CC1C2CCC2(C)C(O)CCC12 (stereo not drawn) | inconclusive: 89.1 µM [inhibitor, single point] | 
55 | O=C(COC(=O)c1ccc2ccccc2n1)Nc1ccccc1F | inconclusive: 12.6 µM [inhibitor, full curve, poor fit] | 
56 | CCc1nn(C)c(-c2n[nH]c(=S)n2N)c1Cl | inconclusive: 25.1 µM [inhibitor, partial curve, poor fit] | 
57 | COc1ccc(C(=O)Nc2ccc([C@H]3OCC(=O)N(Cc4nccn4C)[C@@H]3CO)cc2)cc1 | inactive | 
58 | O=C(CCNC(=O)c1ccc([N+](=O)[O-])cc1)Nc1nccs1 | inconclusive: 50.1 µM [inhibitor, partial curve, poor fit] | 
59 | O=C(O)C1CC(=O)N(c2ccc(S(=O)(=O)Nc3ccccc3F)cc2)C1 (stereo not drawn) | inactive | 
60 | CC(C)c1noc(-c2cccn3c(CNC(=O)c4ccc(F)cc4Cl)nnc23)n1 | inactive | 
61 | O=C(CCN1CCN(c2ccccc2)CC1)NNC(=S)Nc1ccccc1Cl | inactive | 
62 | CCOc1ccccc1Oc1c(C(F)(F)F)oc2cc(OC(=O)C(C)C)ccc2c1=O | inconclusive: 100 µM [inhibitor, single point] | 
63 | CCOC(=O)/C=C/c1ccc(C(F)(F)F)cc1S(=O)(=O)NC(C)(C)C | inactive | 
64 | NC(=O)N=Nc1c(O)n(Cc2ccccc2)c2ccc(Br)cc12 | inactive | 
65 | O[C@H](COc1cccc(Cl)c1)CN1CCC(C(O)(c2ccccc2)c2ccccc2)CC1 | inconclusive: 50.1 µM [inhibitor, single point] | 
66 | O=C(O)c1cc(-c2ccc3ccccc3c2)nc2ccc(F)cc12 | inconclusive: 56.2 µM [inhibitor, partial curve, poor fit] | 
67 | N#C/C(=C\c1coc2ccc(O)cc2c1=O)C(=O)Nc1nc2ccccc2s1 | active: 11.2 µM | 
68 | CC1CCCN(C(=O)c2cc3c(Cl)nc4ccccc4c3s2)C1 (stereo not drawn) | inconclusive: 56.2 µM [inhibitor, partial curve, poor fit] | 
